Data from the supplement of paper PMC12823440, “Inhibitors supercharge kinase turnover through native proteolytic circuits” (Nature, 2025).
Counter-ions that a name gives are not always drawn. This is one part of the list. Hit calls seldom repeat between salt and free forms of one compound.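 In K562 cells expressing nanoluciferase-fused kinases, luminescence was recorded at 4 h intervals between 2 and 18 h, normalized as percent of control with DMSO at 100% and a positive control at 0%. A significant (2 sigma) signal drop marks a time point as decreased. The authors' rule for a hit is not shown and takes in more than the number of time points.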

By UniProt entry, the sequences of proteins in these tests, tags left out. Where a name states a change or a piece, a line headed by the entry shows the natural chain unless it says otherwise.
UniProt Q8IWU2: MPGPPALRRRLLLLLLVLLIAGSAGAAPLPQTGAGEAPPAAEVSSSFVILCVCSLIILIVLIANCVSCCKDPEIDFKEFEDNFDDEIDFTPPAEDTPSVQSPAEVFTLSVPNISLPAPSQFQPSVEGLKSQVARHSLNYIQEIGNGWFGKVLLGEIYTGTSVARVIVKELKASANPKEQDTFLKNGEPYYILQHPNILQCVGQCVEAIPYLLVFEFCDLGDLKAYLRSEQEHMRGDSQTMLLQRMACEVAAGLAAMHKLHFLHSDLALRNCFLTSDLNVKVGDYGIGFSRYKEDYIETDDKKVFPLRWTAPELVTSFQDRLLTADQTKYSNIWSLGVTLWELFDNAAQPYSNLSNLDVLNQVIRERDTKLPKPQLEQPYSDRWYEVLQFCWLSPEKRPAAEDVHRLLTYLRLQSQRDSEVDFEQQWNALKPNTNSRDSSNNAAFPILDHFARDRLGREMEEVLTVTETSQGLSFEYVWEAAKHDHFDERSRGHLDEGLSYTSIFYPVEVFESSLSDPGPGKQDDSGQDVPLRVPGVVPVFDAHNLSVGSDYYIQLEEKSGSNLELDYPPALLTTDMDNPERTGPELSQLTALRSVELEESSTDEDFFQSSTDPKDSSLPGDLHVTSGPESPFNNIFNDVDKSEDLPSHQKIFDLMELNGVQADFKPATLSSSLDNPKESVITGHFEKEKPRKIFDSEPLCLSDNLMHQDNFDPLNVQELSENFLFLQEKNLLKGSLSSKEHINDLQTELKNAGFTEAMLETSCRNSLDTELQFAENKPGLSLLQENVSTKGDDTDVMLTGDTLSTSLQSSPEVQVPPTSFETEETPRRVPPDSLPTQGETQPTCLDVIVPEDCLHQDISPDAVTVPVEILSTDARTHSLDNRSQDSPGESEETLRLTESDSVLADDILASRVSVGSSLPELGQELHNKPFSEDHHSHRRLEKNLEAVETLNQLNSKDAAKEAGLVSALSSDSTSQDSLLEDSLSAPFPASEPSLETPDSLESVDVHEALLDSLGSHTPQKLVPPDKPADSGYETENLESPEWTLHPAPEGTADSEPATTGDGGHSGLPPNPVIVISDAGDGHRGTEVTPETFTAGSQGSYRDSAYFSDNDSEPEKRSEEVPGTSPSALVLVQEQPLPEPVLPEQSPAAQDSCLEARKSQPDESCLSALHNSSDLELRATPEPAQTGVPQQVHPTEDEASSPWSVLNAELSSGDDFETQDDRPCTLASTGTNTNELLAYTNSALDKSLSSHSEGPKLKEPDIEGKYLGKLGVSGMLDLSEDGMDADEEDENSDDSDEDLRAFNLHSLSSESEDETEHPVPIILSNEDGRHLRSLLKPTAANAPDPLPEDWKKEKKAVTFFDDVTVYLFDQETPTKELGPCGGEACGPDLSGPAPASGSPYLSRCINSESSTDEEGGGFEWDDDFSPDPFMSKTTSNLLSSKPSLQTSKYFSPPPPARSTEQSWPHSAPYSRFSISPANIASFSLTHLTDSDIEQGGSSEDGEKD
UniProt P07948: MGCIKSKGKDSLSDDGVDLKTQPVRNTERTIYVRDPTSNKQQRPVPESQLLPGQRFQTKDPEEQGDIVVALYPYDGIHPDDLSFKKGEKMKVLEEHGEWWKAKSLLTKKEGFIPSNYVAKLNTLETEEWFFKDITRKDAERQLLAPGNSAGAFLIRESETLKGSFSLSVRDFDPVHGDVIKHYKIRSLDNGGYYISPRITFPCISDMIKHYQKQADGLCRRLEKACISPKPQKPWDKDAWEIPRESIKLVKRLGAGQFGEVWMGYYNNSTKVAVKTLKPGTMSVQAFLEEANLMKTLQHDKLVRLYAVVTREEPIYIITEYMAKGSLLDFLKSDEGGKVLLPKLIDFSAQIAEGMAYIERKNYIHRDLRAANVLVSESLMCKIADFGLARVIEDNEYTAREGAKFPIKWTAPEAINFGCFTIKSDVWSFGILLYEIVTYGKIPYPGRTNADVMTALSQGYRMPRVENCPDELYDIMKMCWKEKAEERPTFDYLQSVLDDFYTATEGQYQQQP
UniProt Q9BUB5: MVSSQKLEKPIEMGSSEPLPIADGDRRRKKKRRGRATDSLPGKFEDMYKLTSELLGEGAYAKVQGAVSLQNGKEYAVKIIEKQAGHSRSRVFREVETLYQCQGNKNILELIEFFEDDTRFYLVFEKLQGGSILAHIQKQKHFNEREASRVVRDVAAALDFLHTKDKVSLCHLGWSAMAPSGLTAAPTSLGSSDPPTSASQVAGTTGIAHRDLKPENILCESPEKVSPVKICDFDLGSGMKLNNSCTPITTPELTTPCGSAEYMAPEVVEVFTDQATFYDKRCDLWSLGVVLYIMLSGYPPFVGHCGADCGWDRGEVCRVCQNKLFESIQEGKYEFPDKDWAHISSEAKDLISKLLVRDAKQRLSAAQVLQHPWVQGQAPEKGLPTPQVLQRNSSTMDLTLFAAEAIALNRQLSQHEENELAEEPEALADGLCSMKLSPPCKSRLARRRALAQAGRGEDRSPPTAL
UniProt Q16620, whole entry, looked up: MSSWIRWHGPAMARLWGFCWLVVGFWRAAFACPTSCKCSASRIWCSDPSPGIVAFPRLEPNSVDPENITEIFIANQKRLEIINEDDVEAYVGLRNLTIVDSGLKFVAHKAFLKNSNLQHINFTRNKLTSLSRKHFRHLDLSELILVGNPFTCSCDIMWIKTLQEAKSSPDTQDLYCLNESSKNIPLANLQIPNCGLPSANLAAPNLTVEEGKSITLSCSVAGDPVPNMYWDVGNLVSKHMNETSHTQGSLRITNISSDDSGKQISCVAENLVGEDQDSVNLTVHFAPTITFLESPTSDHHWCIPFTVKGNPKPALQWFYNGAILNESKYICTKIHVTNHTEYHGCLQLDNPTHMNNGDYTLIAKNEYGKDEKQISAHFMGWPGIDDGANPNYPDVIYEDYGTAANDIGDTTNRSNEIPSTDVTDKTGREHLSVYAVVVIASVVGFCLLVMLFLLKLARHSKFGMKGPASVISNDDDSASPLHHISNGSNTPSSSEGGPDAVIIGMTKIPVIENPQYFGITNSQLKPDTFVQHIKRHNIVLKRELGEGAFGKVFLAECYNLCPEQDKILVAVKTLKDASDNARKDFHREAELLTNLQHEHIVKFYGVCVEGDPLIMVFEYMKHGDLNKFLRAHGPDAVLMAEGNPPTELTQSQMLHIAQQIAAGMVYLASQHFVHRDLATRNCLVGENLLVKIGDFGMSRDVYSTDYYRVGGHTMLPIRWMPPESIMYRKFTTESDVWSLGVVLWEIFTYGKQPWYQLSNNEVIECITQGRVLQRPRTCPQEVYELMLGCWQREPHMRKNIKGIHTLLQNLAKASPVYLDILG
UniProt Q96KB5: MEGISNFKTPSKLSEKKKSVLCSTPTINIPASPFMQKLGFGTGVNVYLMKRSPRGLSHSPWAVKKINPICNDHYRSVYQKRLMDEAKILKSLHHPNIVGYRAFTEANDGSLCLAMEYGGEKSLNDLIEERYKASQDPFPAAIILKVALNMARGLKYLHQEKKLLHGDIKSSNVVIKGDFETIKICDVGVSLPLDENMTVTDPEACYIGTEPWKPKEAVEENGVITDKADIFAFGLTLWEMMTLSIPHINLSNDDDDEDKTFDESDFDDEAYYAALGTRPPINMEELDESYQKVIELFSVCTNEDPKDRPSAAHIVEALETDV
UniProt P42356, whole entry, looked up: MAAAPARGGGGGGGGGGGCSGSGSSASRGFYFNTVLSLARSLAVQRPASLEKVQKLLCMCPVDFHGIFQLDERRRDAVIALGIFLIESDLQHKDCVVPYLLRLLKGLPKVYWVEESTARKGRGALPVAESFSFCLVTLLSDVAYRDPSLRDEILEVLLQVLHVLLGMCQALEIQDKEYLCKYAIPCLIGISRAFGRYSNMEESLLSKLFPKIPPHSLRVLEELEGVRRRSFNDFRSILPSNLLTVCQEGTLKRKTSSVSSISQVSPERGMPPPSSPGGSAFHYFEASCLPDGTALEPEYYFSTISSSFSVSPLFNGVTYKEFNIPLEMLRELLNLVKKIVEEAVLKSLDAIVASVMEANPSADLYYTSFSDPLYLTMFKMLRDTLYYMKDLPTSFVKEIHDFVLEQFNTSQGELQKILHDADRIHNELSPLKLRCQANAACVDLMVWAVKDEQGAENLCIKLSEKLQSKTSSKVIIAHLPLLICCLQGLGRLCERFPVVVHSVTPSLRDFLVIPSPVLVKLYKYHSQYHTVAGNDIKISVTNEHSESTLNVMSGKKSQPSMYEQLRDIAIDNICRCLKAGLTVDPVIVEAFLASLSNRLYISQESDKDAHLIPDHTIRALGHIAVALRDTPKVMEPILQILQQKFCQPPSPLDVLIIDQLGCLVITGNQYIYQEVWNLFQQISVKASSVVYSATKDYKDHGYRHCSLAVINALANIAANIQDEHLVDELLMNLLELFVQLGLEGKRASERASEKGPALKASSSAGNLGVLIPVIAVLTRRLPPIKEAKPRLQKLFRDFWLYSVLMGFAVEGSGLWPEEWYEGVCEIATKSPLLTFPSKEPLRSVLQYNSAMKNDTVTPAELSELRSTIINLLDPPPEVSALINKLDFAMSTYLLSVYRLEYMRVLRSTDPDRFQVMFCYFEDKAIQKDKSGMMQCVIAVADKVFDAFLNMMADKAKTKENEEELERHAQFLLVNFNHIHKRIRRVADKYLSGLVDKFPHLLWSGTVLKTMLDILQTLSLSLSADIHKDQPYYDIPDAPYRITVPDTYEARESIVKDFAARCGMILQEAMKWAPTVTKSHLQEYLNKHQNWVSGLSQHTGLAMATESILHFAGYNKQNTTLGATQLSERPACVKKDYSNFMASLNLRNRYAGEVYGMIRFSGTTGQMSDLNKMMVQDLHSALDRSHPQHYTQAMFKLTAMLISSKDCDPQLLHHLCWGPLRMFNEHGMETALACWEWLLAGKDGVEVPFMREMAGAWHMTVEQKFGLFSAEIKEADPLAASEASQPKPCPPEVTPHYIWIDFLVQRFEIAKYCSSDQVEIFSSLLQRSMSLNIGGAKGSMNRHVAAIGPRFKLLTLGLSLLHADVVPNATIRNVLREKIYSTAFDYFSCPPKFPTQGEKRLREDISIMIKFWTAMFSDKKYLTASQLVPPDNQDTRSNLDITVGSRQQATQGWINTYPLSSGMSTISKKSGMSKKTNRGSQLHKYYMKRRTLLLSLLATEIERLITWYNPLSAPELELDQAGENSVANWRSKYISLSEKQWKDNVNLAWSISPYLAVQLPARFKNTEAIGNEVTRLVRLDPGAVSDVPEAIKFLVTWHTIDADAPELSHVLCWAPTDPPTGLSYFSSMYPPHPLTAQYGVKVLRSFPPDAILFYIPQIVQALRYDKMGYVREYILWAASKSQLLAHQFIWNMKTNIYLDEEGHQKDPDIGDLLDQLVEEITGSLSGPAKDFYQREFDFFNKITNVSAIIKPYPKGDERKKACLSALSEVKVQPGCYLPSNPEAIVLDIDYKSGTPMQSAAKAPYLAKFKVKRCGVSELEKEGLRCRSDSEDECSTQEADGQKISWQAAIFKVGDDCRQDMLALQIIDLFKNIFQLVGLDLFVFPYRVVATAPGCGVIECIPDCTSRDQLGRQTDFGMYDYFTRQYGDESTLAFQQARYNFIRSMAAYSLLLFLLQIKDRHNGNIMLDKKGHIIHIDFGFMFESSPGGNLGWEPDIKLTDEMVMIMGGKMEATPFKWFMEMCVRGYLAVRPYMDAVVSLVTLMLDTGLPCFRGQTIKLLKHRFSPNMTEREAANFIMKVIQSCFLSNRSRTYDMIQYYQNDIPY
UniProt P53350, whole entry: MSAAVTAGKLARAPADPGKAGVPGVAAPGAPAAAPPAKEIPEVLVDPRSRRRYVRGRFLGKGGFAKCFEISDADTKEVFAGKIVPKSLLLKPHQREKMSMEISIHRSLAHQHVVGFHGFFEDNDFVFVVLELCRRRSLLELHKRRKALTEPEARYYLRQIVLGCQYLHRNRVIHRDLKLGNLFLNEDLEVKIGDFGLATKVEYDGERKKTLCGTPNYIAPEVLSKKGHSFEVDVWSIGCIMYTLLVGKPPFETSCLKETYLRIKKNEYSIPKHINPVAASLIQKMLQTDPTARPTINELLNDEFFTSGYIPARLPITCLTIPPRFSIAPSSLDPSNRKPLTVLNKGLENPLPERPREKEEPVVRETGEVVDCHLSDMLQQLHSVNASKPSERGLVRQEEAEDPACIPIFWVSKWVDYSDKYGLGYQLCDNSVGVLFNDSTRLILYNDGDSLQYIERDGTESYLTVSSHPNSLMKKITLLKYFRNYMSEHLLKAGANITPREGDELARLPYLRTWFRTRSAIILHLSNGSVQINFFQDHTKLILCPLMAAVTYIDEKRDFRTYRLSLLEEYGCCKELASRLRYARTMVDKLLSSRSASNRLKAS

Legend:
Assay in all cases: number of time points (of 5) at which kinase-Nluc abundance scored as decreased, DMSO-normalised (count); higher = more persistent destabilization
Details in all cases: K562; 2-18 h
[1] = target: LMTK2 (UniProt Q8IWU2)
[2] = target: LYN (UniProt P07948)
[3] = target: MAP2K1 (UniProt Q02750)
[4] = target: MAP2K2 (UniProt P36507)
[5] = target: MAP4K2 (UniProt Q12851)
[6] = target: MAPK1 (UniProt P28482)
[7] = target: MAPK4 (UniProt P31152)
[8] = target: MAPKAPK2 (UniProt P49137)
[9] = target: MKNK1 (UniProt Q9BUB5)
[10] = target: NTRK2 (UniProt Q16620)
[11] = target: NTRK3 (UniProt Q16288)
[12] = target: PAK4 (UniProt O96013)
[13] = target: PBK (UniProt Q96KB5)
[14] = target: PDGFRB (UniProt P09619)
[15] = target: PDK1 (UniProt Q15118)
[16] = target: PDPK1 (UniProt O15530)
[17] = target: PIK4CA (UniProt P42356)
[18] = target: PIK4CB (UniProt Q9UBF8)
[19] = target: PLK1 (UniProt P53350)
[20] = target: PRKAA1 (UniProt Q13131)

Row | Structure (SMILES) | number of time points [1] | number of time points [2] | number of time points [3] | number of time points [4] | number of time points [5] | number of time points [6] | number of time points [7] | number of time points [8] | number of time points [9] | number of time points [10] | number of time points [11] | number of time points [12] | number of time points [13] | number of time points [14] | number of time points [15] | number of time points [16] | number of time points [17] | number of time points [18] | number of time points [19] | number of time points [20]
1 | C[C@@H]1C[C@H]2O[C@@]3(O[C@@H]2C(C)(C)O)[C@H](O)[C@@]2(C)[C@@H]4CC[C@H]5C(C)(C)[C@@H](O[C@@H]6OC[C@H](O)[C@H](O)[C@H]6O)CC[C@@]56C[C@@]46CC[C@]2(C)[C@@H]13 [Cimiracemoside C] (10 µM) | 0 | 0 | 0 | 0 | 0 | 0 | 0 | 0 | 0 | 0 | 0 | 0 | 0 | 0 | 0 | 0 | 0 | 0 | 0 | 0
2 | CC[C@H](C)[C@H](NC(=O)[C@H](CCC(=O)O)NC(=O)[C@H](CCCN=C(N)N)NC(=O)[C@H](CCCN=C(N)N)NC(=O)[C@@H](N)CCCCN)C(=O)N[C@@H](CC(C)C)C(=O)N[C@@H](CO)C(=O)N[C@@H](CCCN=C(N)N)C(=O)N[C@@H](CCCN=C(N)N)C(=O)N1CCC[C@H]1C(=O)N[C@@H](CO)C(=O)N[C@@H](Cc1ccc(O)cc1)C(=O)N[C@@H](CCCN=C(N)N)C(=O)O [CREBtide] (10 µM) | 0 | 0 | 0 | 0 | 0 | 0 | 0 | 0 | 0 | 0 | 0 | 0 | 0 | 0 | 0 | 0 | 0 | 0 | 0 | 0
3 | Cc1cc(C(C)Nc2ccccc2)c2nc(N3CCOCC3)cc(=O)n2c1 (stereo not given) (10 µM) | 0 | 0 | 0 | 0 | 0 | 0 | 0 | 0 | 0 | 0 | 0 | 0 | 0 | 0 | 0 | 0 | 0 | 0 | 0 | 0
4 | O=[N+]([O-])c1ccc(Sc2cccc[n+]2[O-])c2nonc12 (2.5 µM) | 0 | 0 | 0 | 0 | 0 | 0 | 0 | 0 | 0 | 0 | 0 | 0 | 0 | 0 | 0 | 0 | 0 | 0 | 0 | 0
5 | CCCCNC(=N)NC(=N)N [Buformin (hydrochloride)] (2.5 µM) | 0 | 0 | 0 | 0 | 0 | 0 | 0 | 0 | 0 | 0 | 0 | 0 | 0 | 0 | 0 | 0 | 0 | 0 | 0 | 0
6 | CC(=O)Nc1nc(C)c(-c2nc(N3CCCC(O)C3)no2)s1 (stereo not given) (10 µM) | 0 | 0 | 0 | 0 | 0 | 0 | 0 | 0 | 0 | 0 | 0 | 0 | 0 | 0 | 0 | 0 | 0 | 0 | 0 | 0
7 | OCCN(CCO)c1ccc(C(c2ccc(Cl)cc2)c2ccc(N(CCO)CCO)cc2)cc1 (10 µM) | 0 | 0 | 0 | 2 | 0 | 3 | 0 | 0 | 3 | 2 | 4 | 0 | 0 | 3 | 0 | 0 | 1 | 0 | 0 | 0
8 | O=c1cc(-c2ccc(O)c(O)c2O)oc2ccccc12 (10 µM) | 0 | 0 | 0 | 0 | 0 | 0 | 0 | 0 | 0 | 0 | 0 | 0 | 0 | 0 | 0 | 0 | 0 | 0 | 0 | 0
9 | CN1CC[C@H](c2c(O)cc(O)c3c(=O)cc(-c4ccc(C(F)(F)F)cc4Cl)oc23)[C@H]1CO [(2S,3R)-Voruciclib (hydrochloride)] (2.5 µM) | 3 | 0 | 0 | 0 | 0 | 0 | 0 | 0 | 0 | 0 | 0 | 0 | 0 | 0 | 0 | 0 | 0 | 0 | 0 | 0
10 | CCc1ccc(C(=O)COc2ccc(CC3SC(=O)NC3=O)cc2)nc1 (stereo not given) (10 µM) | 0 | 0 | 0 | 0 | 0 | 0 | 0 | 0 | 0 | 0 | 0 | 0 | 0 | 0 | 0 | 0 | 0 | 0 | 0 | 0
11 | COc1ccc2c(Oc3ccc(NC(=O)c4c(C)n(CC(C)(C)O)n(-c5ccccc5)c4=O)cc3F)ccnc2c1 (2.5 µM) | 0 | 0 | 0 | 0 | 0 | 0 | 0 | 0 | 1 | 0 | 0 | 0 | 0 | 0 | 0 | 3 | 0 | 1 | 0 | 0
12 | CC[C@@H](N)CNc1ccnc(-c2cc(-c3cnn(C)c3)ccc2O)n1 (2.5 µM) | 3 | 0 | 0 | 0 | 0 | 0 | 0 | 0 | 0 | 0 | 0 | 0 | 0 | 0 | 0 | 1 | 0 | 0 | 0 | 0
13 | COc1ccc2c(=O)c(-c3ccccc3)coc2c1 [7-Methoxyisoflavone] (10 µM) | 1 | 0 | 0 | 0 | 0 | 0 | 0 | 0 | 0 | 0 | 3 | 0 | 0 | 0 | 0 | 0 | 0 | 0 | 0 | 0
14 | CC(C)c1cc(/C=C(\C#N)C(N)=O)cc(C(C)C)c1O (10 µM) | 0 | 0 | 0 | 0 | 0 | 0 | 0 | 0 | 0 | 0 | 0 | 0 | 0 | 0 | 0 | 0 | 0 | 0 | 0 | 0
15 | Cc1cc(Nc2nc(N[C@@H](C)c3ncc(F)cn3)ncc2Cl)[nH]n1 (10 µM) | 0 | 0 | 0 | 0 | 0 | 0 | 0 | 0 | 0 | 0 | 0 | 0 | 0 | 0 | 0 | 0 | 0 | 0 | 0 | 0
16 | CN1C(=O)NC(Cc2c[nH]c3c(Cl)cccc23)C1=O (racemic) [Necrostatin 2 (racemate)] (10 µM) | 0 | 0 | 0 | 0 | 0 | 0 | 0 | 0 | 0 | 0 | 0 | 0 | 0 | 0 | 0 | 0 | 0 | 0 | 0 | 0
17 | CN(CC(=O)N(Cc1ccc(C2CCCCC2)cc1)c1ccc(C(=O)O)c(O)c1)S(=O)(=O)c1c(F)c(F)c(F)c(F)c1F (2.5 µM) | 0 | 0 | 0 | 0 | 0 | 0 | 0 | 0 | 0 | 0 | 0 | 0 | 0 | 0 | 0 | 0 | 0 | 0 | 0 | 0
18 | CC(CCc1ccccn1)(CCc1ccccn1)C(=O)c1ccccc1 (10 µM) | 0 | 0 | 0 | 0 | 0 | 0 | 0 | 0 | 0 | 0 | 0 | 0 | 0 | 0 | 0 | 0 | 0 | 0 | 0 | 0
19 | CC1=C(CC(=O)O)c2cc(F)ccc2/C1=C\c1ccc(C(C)C)cc1 (10 µM) | 0 | 0 | 0 | 0 | 0 | 0 | 0 | 0 | 0 | 0 | 0 | 0 | 0 | 0 | 0 | 0 | 0 | 0 | 1 | 0
20 | N#C/C(=C\c1ccc2oc(=O)[nH]c2c1)C(=O)c1ccc(O)c(O)c1 (10 µM) | 0 | 0 | 0 | 0 | 0 | 0 | 0 | 0 | 0 | 0 | 0 | 0 | 0 | 0 | 0 | 0 | 0 | 0 | 0 | 0
21 | C=CC(=O)N1CCC(Oc2cc3c(Nc4ccc(Cl)c(Cl)c4F)ncnc3cc2OC)CC1 [Poziotinib] (2.5 µM) | 0 | 0 | 0 | 0 | 0 | 0 | 0 | 0 | 0 | 0 | 0 | 0 | 0 | 0 | 0 | 0 | 0 | 0 | 0 | 0

Rewritten as tab-separated lines: entries from further up.
Row	Structure (SMILES)	number of time points [1]	number of time points [2]	number of time points [3]	number of time points [4]	number of time points [5]	number of time points [6]	number of time points [7]	number of time points [8]	number of time points [9]	number of time points [10]	number of time points [11]	number of time points [12]	number of time points [13]	number of time points [14]	number of time points [15]	number of time points [16]	number of time points [17]	number of time points [18]	number of time points [19]	number of time points [20]
16	CN1C(=O)NC(Cc2c[nH]c3c(Cl)cccc23)C1=O (racemic) [Necrostatin 2 (racemate)] (10 µM)	0	0	0	0	0	0	0	0	0	0	0	0	0	0	0	0	0	0	0	0
19	CC1=C(CC(=O)O)c2cc(F)ccc2/C1=C\c1ccc(C(C)C)cc1 (10 µM)	0	0	0	0	0	0	0	0	0	0	0	0	0	0	0	0	0	0	1	0
